Source: PubChem BioAssay AID1224830 (NIAID, 2016)

- Test: 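Regulators of TLR4 signalling towards TNF-alpha in macrophage-like cells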 (primary screen)
- Cell system: human THP-1 monocytic leukaemia cells, TNF dual-luciferase reporter clone, PMA-differentiated to macrophage-like cells
- Reagents: siRNA pool against human genes, 50 nM
- Time to read-out: LPS for 4 h, given about 3 days after siRNA transfection
- Challenge: bacterial LPS (TLR4 ligand), 10 ng/ml
- Measured: 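TNF firefly reporter luminescence divided by renilla, normalised to the plate median, then turned into a robust z-score for each replicate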
- Direction: TNF reporter robust z-score: higher = stronger TNF reporter response to LPS
- Rule for the call: 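Each well counts as active if its z-score is over 2.8 or under -1.5; controls are left without a call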
The deposit covers about 18,000 reagents; below is an unselected part. About 2,900 of them (16%) were called active. 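Calls are made per well; low scores hint the gene aids the LPS response, high scores that it dampens it.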 A number with no mark means an inactive call. Repeated entries: four replicate wells of each siRNA pool.

After knock-down of NUP153 [SID315453720] the results were TNF reporter robust z-score 0.31.
Depletion of NUP153 [SID315453720] resulted in: TNF reporter robust z-score 0.13.
With knock-down of NUP153 [SID315453720], the record shows TNF reporter robust z-score -0.42.
After knock-down of NUP153 [SID315453720], the screen gave TNF reporter robust z-score -0.31.
ABCF2 [SID315453788] gave TNF reporter robust z-score 1.78.
Knock-down of ABCF2 [SID315453788] came out at: TNF reporter robust z-score 0.94.
ABCF2 [SID315453788] gave TNF reporter robust z-score 0.27.
Depletion of ABCF2 [SID315453788] resulted in: TNF reporter robust z-score 0.43.
PDE4B [SID315450475] gave TNF reporter robust z-score 1.55.
PDE4B [SID315450475] showed TNF reporter robust z-score 0.97.
PDE4B [SID315450475] showed TNF reporter robust z-score 1.13.
Silencing of PDE4B [SID315450475] resulted in: TNF reporter robust z-score 2.03.
For TNFAIP3 [SID315451922], the values are TNF reporter robust z-score -0.31.
Knock-down of TNFAIP3 [SID315451922] gave: TNF reporter robust z-score 0.1.
With knock-down of TNFAIP3 [SID315451922], the screen gave TNF reporter robust z-score -0.25.
Against TNFAIP3 [SID315451922], the entry reads TNF reporter robust z-score 0.31.
EIPR1 [SID315451994] gave TNF reporter robust z-score -0.59.
For EIPR1 [SID315451994], the values are TNF reporter robust z-score -0.75.
After knock-down of EIPR1 [SID315451994], the record shows TNF reporter robust z-score -0.14.
For EIPR1 [SID315451994], the values are TNF reporter robust z-score -0.07.
For GADD45GIP1 [SID315460828], the values are TNF reporter robust z-score 0.43.
After knock-down of GADD45GIP1 [SID315460828], the screen gave TNF reporter robust z-score 1.7.
GADD45GIP1 [SID315460828] scored TNF reporter robust z-score 1.22.
GADD45GIP1 [SID315460828] gave TNF reporter robust z-score 1.17.
Against CMTR2 [SID315457853], the entry reads TNF reporter robust z-score -0.35.
Silencing of CMTR2 [SID315457853] gave: TNF reporter robust z-score 1.06.
With knock-down of CMTR2 [SID315457853], the record shows TNF reporter robust z-score -0.31.
For CMTR2 [SID315457853], the entry reads TNF reporter robust z-score 0.11.
Against HBE1 [SID315449157], the values are TNF reporter robust z-score -0.16.
For HBE1 [SID315449157], the entry reads TNF reporter robust z-score 0.
HBE1 [SID315449157] scored TNF reporter robust z-score -0.32.
For HBE1 [SID315449157], the entry reads TNF reporter robust z-score -0.22.
BCAP29 [SID315457970] scored TNF reporter robust z-score -0.88.
BCAP29 [SID315457970] gave TNF reporter robust z-score 0.1.
After knock-down of BCAP29 [SID315457970], the screen gave TNF reporter robust z-score -1.45.
Against BCAP29 [SID315457970] the deposit lists TNF reporter robust z-score -1.46.
For CHRNB4 [SID315447933], the entry reads TNF reporter robust z-score 0.71.
CHRNB4 [SID315447933] gave TNF reporter robust z-score -0.94.
Knock-down of CHRNB4 [SID315447933] resulted in: TNF reporter robust z-score -1.1.
Depletion of CHRNB4 [SID315447933] came out at: TNF reporter robust z-score -0.63.
NMNAT2 [SID315454958] scored TNF reporter robust z-score 2.48.
NMNAT2 [SID315454958] showed TNF reporter robust z-score 3.22 (active).
With knock-down of NMNAT2 [SID315454958], the screen gave TNF reporter robust z-score 3.51 (active).
After knock-down of NMNAT2 [SID315454958], the screen gave TNF reporter robust z-score 5.85 (active).
Against SNAP47 [SID315461391], the entry reads TNF reporter robust z-score 0.1.
SNAP47 [SID315461391] showed TNF reporter robust z-score 1.85.
With knock-down of SNAP47 [SID315461391], the record shows TNF reporter robust z-score 0.89.
SNAP47 [SID315461391] showed TNF reporter robust z-score 2.75.
Silencing of ZNF436-AS1 [SID315462397] gave: TNF reporter robust z-score -0.23.
Knock-down of ZNF436-AS1 [SID315462397] resulted in: TNF reporter robust z-score 1.42.
After knock-down of ZNF436-AS1 [SID315462397], the screen gave TNF reporter robust z-score -0.77.
ZNF436-AS1 [SID315462397] showed TNF reporter robust z-score -1.02.
For IL27RA [SID315453307] the deposit lists TNF reporter robust z-score -0.83.
IL27RA [SID315453307] showed TNF reporter robust z-score -0.64.
After knock-down of IL27RA [SID315453307], the screen gave TNF reporter robust z-score -0.97.
For IL27RA [SID315453307] the deposit lists TNF reporter robust z-score -0.35.
With knock-down of TAS2R14 [SID315456369], the screen gave TNF reporter robust z-score 1.19.
TAS2R14 [SID315456369] scored TNF reporter robust z-score 6.58 (active).
For TAS2R14 [SID315456369], the values are TNF reporter robust z-score 1.43.
Silencing of TAS2R14 [SID315456369] resulted in: TNF reporter robust z-score 0.99.
